{"source": "patent US20040048830A1", "about": "“Use of cortisol-sequestering agents for the treatment of hypercortisolaemia related disorders” (priority 2000, published 2004)", "assay": "UV titration of cyclodextrin into cortisol (absorbance at 246 nm)", "assay_type": "binding", "details": "1:1 cortisol:γ-cyclodextrin complex", "source_text": "UV-visible spectroscopy was used to monitor the complex formation between cortisol and a library of cyclodextrin derivatives. The UV spectrum of cortisol contains an absorption band having a maximum at 246 nm. The intensity of the UV line at 246 nm decreases upon complexation of cortisol by addition of a cyclodextrin host molecule. The decrease in the absorbance of an aqueous solution of the guest molecule (cortisol) upon addition of a typical host molecule (like a cyclodextrin derivative) is taken as evidence that the guest molecule has moved from the polar aqueous environment to the usually less polar environment of the interior of the host molecule. The methodology is well established in the field of supramolecular chemistry (Tsukube, H. et al. In Comprehensive Supramolecular Chemistry: Physical Methods in Supramolecular Chemistry. Davies J E D, Ripmeester J A, (Eds) Elsevier, Oxford, 1996: Vol 8, pp 425-483).\nThe association constants for complex formation are determined by performing a titration of cyclodextrin into cortisol and recording the UV spectrum as a function of the cyclodextrin/steroid ratio. The change in absorption of cortisol at 246 nm (Δ A) upon stepwise addition of cyclodextrin is recorded. The best fit line to the data give Ka for the cortisol-cyclodextrin complex (Liu Y, Li, B, You C-C, Wada, T, Inoue Y. J. Org. Chem., 2001, 66, 225-232). […]", "note": "Some results were stated once for a whole list of compounds, not compound by compound."}
{"substance": "6-per-deoxy-6-per-(2,3-dihydroxypropylthio)-γ-cyclodextrin [Org 26276]", "values": [{"measurement": "Ka", "value": "greater than 10^5 M^−1"}]}
